The name of at least one read-out is uncertain.
Legend:
[1] = system: Escherichia coli (ATCC No. 25922); assay: Antibacterial activity in vitro, broth microdilution MIC and MBC; format: cell-based
Description: (§1) The MICs (minimum inhibitory concentrations) of the formulated LNPs containing polymyxin B and free polymyxin B against Gram-negative bacteria were determined using a broth microdilution method. Briefly, the bacteria were incubated overnight in MHB, and the bacteria suspension was diluted with MHB to achieve a concentration of […] (CFU)/mL (O.D. 600=0.100). This was followed by a 1000-fold dilution in MHB. The bacterial suspension was then seeded into a 96-well plate (80 μL per well) and mixed with 20 μL of MHB containing different polymyxin B-loaded LNPs or free polymyxin B concentrations. The 96-well plate was incubated for 24 h at 37° C. (bacteria). […] The MIC experiments were performed with four independent replicates. The MBCs (minimum bactericidal concentrations) were evaluated at the end of the MIC experiment.
(§2) The microbial suspension was then spread on LB agar plates, and the plates were incubated at 37° C. for 24 h to determine CFU on each agar plate. The experiments were performed in replicates of five. The MBC experiment was conducted with three independent replicates.

[2] = system: Pseudomonas aeruginosa (ATCC No. 9027); assay: as above; format: cell-based
Description: as §1, §2

[3] = Table 6, experiment with 2nd formulation, R ≤ 4 signifies bactericidal activity
[4] = Table 7, experiment with 1st formulation, R ≤ 4 signifies good bactericidal activity

Polymyxin B [Polymyxin B (PB)]
R = (MBC or MFC)/MIC E. coli [1, 3]: 4
R = (MBC)/MIC E. coli [1, 4]: 1
R = (MBC or MFC)/MIC P. aeruginosa [2, 3]: 2
R = (MBC)/MIC P. aeruginosa [2, 4]: 1
